Measurements published in publication PMC2993924.
Results are given in words; binding and its absence hold for the method and conditions named. Binding seen in cells or lysates may run through a third protein. Some results given as binding are weak or reduced against the parent protein; the word gives no strength.

Chains of the proteins cited; added tags and fusions are not shown.
UniProt Q03135: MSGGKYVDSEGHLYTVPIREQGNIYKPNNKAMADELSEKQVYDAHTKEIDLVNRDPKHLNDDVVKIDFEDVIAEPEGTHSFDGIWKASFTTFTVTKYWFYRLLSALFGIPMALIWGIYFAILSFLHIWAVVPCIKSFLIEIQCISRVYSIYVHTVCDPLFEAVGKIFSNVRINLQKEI
UniProt Q92731: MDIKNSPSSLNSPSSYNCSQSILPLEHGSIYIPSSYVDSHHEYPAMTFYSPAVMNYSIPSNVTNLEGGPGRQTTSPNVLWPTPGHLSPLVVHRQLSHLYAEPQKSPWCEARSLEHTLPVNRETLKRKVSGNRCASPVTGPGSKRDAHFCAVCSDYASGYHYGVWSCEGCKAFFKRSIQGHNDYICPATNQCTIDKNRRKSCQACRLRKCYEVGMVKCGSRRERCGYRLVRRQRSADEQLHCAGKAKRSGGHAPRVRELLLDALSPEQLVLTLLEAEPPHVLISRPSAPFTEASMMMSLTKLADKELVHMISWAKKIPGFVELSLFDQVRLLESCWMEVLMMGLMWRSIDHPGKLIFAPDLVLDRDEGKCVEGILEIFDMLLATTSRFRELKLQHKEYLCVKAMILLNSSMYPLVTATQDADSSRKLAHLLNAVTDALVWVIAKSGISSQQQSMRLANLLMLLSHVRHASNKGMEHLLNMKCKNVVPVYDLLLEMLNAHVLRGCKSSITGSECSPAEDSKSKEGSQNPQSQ

Biological target: EGF receptor (EGFR), membrane associated (human (endogenous in REN)) (UniProt P00533)
Assay: co-IP; intact REN cells (wild type, mock- or ERβ-transfected; untreated or 5 ng/ml EGF for 1 or 5 min) incubated with anti-EGFR antibodies 1 h at 4°C, then lysed in 1% NP-40, 150 mM NaCl, 50 mM Tris-HCl pH 8; 2 mg extract with protein A-Sepharose; blots for EGFR, ERβ and caveolin 1

binding | Substance
binds | caveolin 1 (from UniProt Q03135 1-178)
binds | estrogen receptor beta (ERβ), endogenous in REN cells (from UniProt Q92731 1-530)
binds | human wild type ERβ expressed from the pCXN2 plasmid (from UniProt Q92731 1-530)
